Construct, isoform or probe ends are uncertain for at least one entry. No signal at the amounts used counts as a negative. At least one verdict was read from the data and is not stated in words by the source. Weaker means in comparison with the reference protein, sequence or condition of that experiment.

Sequences of proteins named here, by UniProt entry; tags and fusion partners are left off. Residues count along the entry.
UniProt Q94CL7, 208-362: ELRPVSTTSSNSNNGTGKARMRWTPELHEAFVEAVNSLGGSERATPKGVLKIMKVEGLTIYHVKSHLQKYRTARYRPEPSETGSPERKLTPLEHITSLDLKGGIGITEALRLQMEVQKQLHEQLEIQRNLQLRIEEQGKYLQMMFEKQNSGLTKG

This series deals with MBP-AtdPHR1 (Arabidopsis thaliana) (UniProt Q94CL7). Nature of the series: SPR. Conditions: SPR (Biacore 3000, SA chip, ~500 RU DNA): 10 mM HEPES pH 7.5, 200 mM NaCl, 0.01% Surfactant P-20, 25 C, 40 ul/min, with or without Pi/InsP6, recombinant protein, residues 208-362, protein details: N-terminal MBP (pMAL-c2x). Background: SPR reads the build-up and loss of mass on a sensor chip optically.

Turning to “CAGAGAAAAAAGGATATTCTAATTAGAAACCTTAAGAATATTCTTTTTAATCCC (double strand) [2x P1BS probe]”, the binding result runs as follows: (80 nM pre-bound, then GST-AtSPX1 with 100 uM InsP6, not displaced, label: 5'-biotin on strand 1) “binds”; (80 nM, pre-mixed with GST-AtSPX1, 100 uM InsP6, signal not lowered, label: 5'-biotin on strand 1) “binds”; (80 nM, pre-mixed with ~1000 nM GST-AtSPX1, 500 uM InsP6, smaller loss than 1x P1BS, label: 5'-biotin on strand 1) “binds more weakly”; (80 nM, pre-mixed with ~1000 nM GST-AtSPX1, 5 mM Pi, smaller loss than 1x P1BS, label: 5'-biotin on strand 1) “binds more weakly”.
Regarding “CCGGCAGGAGACGTCTAGACGTCTCCGGCAGG (double strand) [met-box control probe]”, the binding result (0.31-80 nM protein, data not shown, label: biotin (implied by SA capture)) was “no binding”.

Values taken from paper PMC5651819, “AtSPX1 affects the AtPHR1–DNA-binding equilibrium by binding monomeric AtPHR1 in solution” (Biochemical Journal, 2017).
